The exact form of at least one protein or probe is not confirmed. For some of these results: A negative result means that nothing was seen under these conditions. For some of these results: Weaker means in comparison with the reference protein, sequence or condition of that experiment. For some of these results: Results from cells or extracts need not show a direct contact. For some of these results: At least one verdict was read from the data and is not stated in words by the source. For some of these results: Where a protein sequence is shown, tags need not be part of it.

Data set [1] has as its target SMAD2 (nuclear extract) (Homo sapiens (hSAEC)) (UniProt Q15796). As to the kind of experiment: EMSA supershift. The following applies: anti-SMAD2, 10 mM HEPES pH 7.9, 10 mM KCl, 1.5 mM MgCl2, 1 mM DTT, 5% glycerol, 20 nM Cy5-DNA, on ice, 6% PAGE at 4 C, protein in an extract, label: 5'-Cy5 on strand 1. Background: Mobility shift assays separate free from complexed probe on a gel.

Data set [2] deals with SMAD3 (nuclear extract) (Homo sapiens (hSAEC)) (UniProt P84022). As to the kind of experiment: EMSA supershift. The following applies: anti-SMAD3, 10 mM HEPES pH 7.9, 10 mM KCl, 1.5 mM MgCl2, 1 mM DTT, 5% glycerol, 20 nM Cy5-DNA, on ice, 6% PAGE at 4 C, protein in an extract, label: 5'-Cy5 on strand 1.
For data set [3], the target named is T1, SMAD4 (nuclear extract) (Homo sapiens (hSAEC)) (UniProt Q13485).
T1 sequence (looked up, limits assumed): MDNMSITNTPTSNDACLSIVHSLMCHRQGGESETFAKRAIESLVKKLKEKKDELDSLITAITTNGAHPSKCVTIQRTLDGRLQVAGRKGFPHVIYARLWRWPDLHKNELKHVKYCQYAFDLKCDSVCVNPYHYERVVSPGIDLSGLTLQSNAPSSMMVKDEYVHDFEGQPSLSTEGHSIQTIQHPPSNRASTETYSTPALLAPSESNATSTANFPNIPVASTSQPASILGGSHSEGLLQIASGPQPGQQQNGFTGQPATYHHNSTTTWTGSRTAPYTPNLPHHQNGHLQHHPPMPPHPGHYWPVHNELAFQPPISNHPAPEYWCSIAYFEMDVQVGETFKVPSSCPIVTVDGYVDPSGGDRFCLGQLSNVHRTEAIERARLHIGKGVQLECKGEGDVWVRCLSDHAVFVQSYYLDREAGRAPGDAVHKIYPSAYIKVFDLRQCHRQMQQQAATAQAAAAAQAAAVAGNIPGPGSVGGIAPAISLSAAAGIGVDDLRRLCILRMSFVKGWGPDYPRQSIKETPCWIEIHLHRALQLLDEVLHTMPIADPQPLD
Nature of the data set: EMSA supershift. The following applies: anti-SMAD4, 10 mM HEPES pH 7.9, 10 mM KCl, 1.5 mM MgCl2, 1 mM DTT, 5% glycerol, 20 nM Cy5-DNA, on ice, 6% PAGE at 4 C, protein in an extract, label: 5'-Cy5 on strand 1.

Data set [4] has as its target OGG1 (nuclear extract) (Homo sapiens (hSAEC)) (UniProt O15527). Nature of the data set: EMSA supershift. To be noted: 10 mM HEPES pH 7.9, 10 mM KCl, 1.5 mM MgCl2, 1 mM DTT, 5% glycerol, 20 nM Cy5-DNA, on ice, 6% PAGE at 4 C, protein in an extract, label: 5'-Cy5 on strand 1.
Another data set concerns UDG. As to the kind of experiment: EMSA. To be noted: 100 nM UDG; 8-oxoG at strand 2 position 43 from its 5' end (opposite strand 1 position 15); 10 mM HEPES pH 7.9, 10 mM KCl, 1.5 mM MgCl2, 1 mM DTT, 5% glycerol, 20 nM Cy5-DNA, on ice; 6% PAGE at 4 C; recombinant protein; label: 5'-Cy5 on strand 1.
The test system of a further data set is MTH1. As to the kind of experiment: EMSA. The following applies: 100 nM MTH1; 8-oxoG at strand 2 position 43 from its 5' end (opposite strand 1 position 15); 10 mM HEPES pH 7.9, 10 mM KCl, 1.5 mM MgCl2, 1 mM DTT, 5% glycerol, 20 nM Cy5-DNA, on ice; 6% PAGE at 4 C; recombinant protein; label: 5'-Cy5 on strand 1.
In a further data set the target is SMAD3 (UniProt P84022). As to the kind of experiment: EMSA. The following applies: 8-oxoG at strand 2 position 43 from its 5' end (opposite strand 1 position 15), 10 mM HEPES pH 7.9, 10 mM KCl, 1.5 mM MgCl2, 1 mM DTT, 5% glycerol, 20 nM Cy5-DNA, on ice, 6% PAGE at 4 C, recombinant protein, residues 1-425, label: 5'-Cy5 on strand 1.
The next data set has as its system NEIL2. As to the kind of experiment: EMSA. The following applies: 100 nM NEIL2; 8-oxoG at strand 2 position 43 from its 5' end (opposite strand 1 position 15); 10 mM HEPES pH 7.9, 10 mM KCl, 1.5 mM MgCl2, 1 mM DTT, 5% glycerol, 20 nM Cy5-DNA, on ice; 6% PAGE at 4 C; recombinant protein; label: 5'-Cy5 on strand 1.
Where [5] appears, read: 8-oxoG at strand 2 position 43 from its 5' end (opposite strand 1 position 15).

Take “CCCCAGGGTGAGCCCAGCTCAGACTATCATCCGGAAAGCCCCCAAAAGTCCCAGCCC (double strand)”: the binding result was “binds” in data set [1]; “binds” in data set [2]; “binds” in data set [3]; “binds” in data set [4] (anti-OGG1, via protein-protein interaction).

In the case of “CCCCAGGGTGAGCCCAGCTCAGACTATCATCCGGAAAGCCCCCAAAAGTCCCAGCCC (double strand) [G'3]”, the binding result is given as “binds” in data set [1] (setting [5]); “binds” in data set [2] (setting [5]); “binds” in data set [3] (setting [5]); “binds” in data set [4] (anti-OGG1, 8-oxoG at strand 2 position 43 from its 5' end (opposite strand 1 position 15)); “no binding” with UDG; “no binding” in the data set with MTH1. Besides, the results for the binding result with SMAD3 (OGG1 + SU0268), with SMAD3 (OGG1 + TH5487) and in the data set with NEIL2 were “binds more weakly”, “binds more weakly” and “no binding”, respectively.

(Values after article PMC9943661.)
